# According to US20250154171A1, “RAS INHIBITORS” (Revolution Medicines, Inc., priority 2023, published 2025):
# Sequences of proteins named here, by UniProt entry; tags and fusion partners are left off. A change or cut given only in a name is not applied to a line headed by its entry. Residues count along the entry.
# UniProt P01116, 1-188 isoform P01116-2 G12V: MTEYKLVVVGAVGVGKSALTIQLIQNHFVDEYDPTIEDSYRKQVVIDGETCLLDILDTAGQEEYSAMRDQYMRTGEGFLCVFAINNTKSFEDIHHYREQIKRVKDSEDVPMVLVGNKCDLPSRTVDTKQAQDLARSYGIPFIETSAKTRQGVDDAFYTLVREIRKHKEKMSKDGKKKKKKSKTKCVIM
# UniProt P62937, whole entry: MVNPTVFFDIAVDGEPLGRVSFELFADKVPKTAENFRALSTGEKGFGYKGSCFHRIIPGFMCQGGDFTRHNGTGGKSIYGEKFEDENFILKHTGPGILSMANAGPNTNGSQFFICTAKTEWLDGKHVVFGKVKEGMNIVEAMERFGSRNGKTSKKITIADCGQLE
# Some results were stated once for a whole list of compounds, not compound by compound.
# Tests used:
# K-RasG12V = K-RasG12V (Homo sapiens, UniProt P01116+P62937, G12V); experiment: Disruption of BRAF RBD interaction with K-Ras (TR-FRET / MOA assay), K-RasG12V; assay type: biochemical; conditions: read-out: IC50 with respect to K-RasG12V (disruption of BRAF RBD interaction), TR-FRET with cyclophilin A and GST-BRAF RBD
# Capan-1 (K-Ras G12V) = experiment: CellTiter-Glo cell viability assay, Capan-1; assay type: cell-based, human; conditions: 5-day treatment, Capan-1 versus A375
SMILES,IC50 (K-RasG12V),decrease in cell viability with respect to KRAS G12V (Capan-1) versus wild-type KRAS (A375) (Capan-1 (K-Ras G12V))
CO[C@@H](C)c1ncccc1-c1c2c3cc(ccc3n1CCOC1CCOCC1)-c1csc(n1)[C@@H](N1CC3(CCO3)C1)[C@H](NC(=O)C13CC(C)(C1)[C@@H](C)O3)C(=O)N1CCC[C@H](N1)C(=O)OCC(C)(C)C2 (racemic) [Example A230],< 1000 nM,greater decrease in cell viability
CO[C@@H](C)c1ncc(N2CCN(C3CC3)CC2)cc1-c1c2c3cc(ccc3n1CCO[C@H]1CCOC(C)(C)C1)-c1coc(n1)[C@@H](N1CC3(COC3)C1)[C@H](NC(=O)[C@@H]1[C@@H](C)[C@H]1c1ccccn1)C(=O)N1CC3CC(C3)(N1)C(=O)OCC(C)(C)C2 (racemic) [Example A232],< 1000 nM,greater decrease in cell viability
CO[C@@H](C)c1ncccc1-c1c2c3cc(ccc3n1CCOC1CCOCC1)-c1csc(n1)[C@@H](N1CC(C)(OC)C1)[C@H](NC(=O)[C@H]1OC[C@@H]1C)C(=O)N1CCC[C@H](N1)C(=O)OCC(C)(C)C2 (racemic) [Example A234],< 1000 nM,greater decrease in cell viability
CO[C@@H](C)c1ncc(N2CCN(C3CC3)CC2)cc1-c1c2c3cc(ccc3n1CCO[C@H]1CCOC(C)(C)C1)-c1coc(n1)[C@@H](N1CC3(COC3)C1)[C@H](NC(=O)[C@@H]1[C@@H](C)[C@H]1c1ccccn1)C(=O)N1CCC[C@H](N1)C(=O)OCC(C)(C)C2 (racemic) [Example A242],< 1000 nM,greater decrease in cell viability
CO[C@@H](C)c1ncc(N2CCN(C3CC3)CC2)cc1-c1c2c3cc(ccc3n1CCO[C@H]1CCOC(C)(C)C1)-c1coc(n1)[C@@H](N1CCCC1)[C@H](NC(=O)[C@@H]1[C@@H](C)[C@H]1[C@H]1CCCO1)C(=O)N1CC3CC(C3)(N1)C(=O)OCC(C)(C)C2 (racemic) [Example A262],< 1000 nM,greater decrease in cell viability
